{"sequences": {"note": "The chains behind the UniProt entries cited, without tags or fusion partners. Where a name states a change or a piece, a line headed by the entry shows the natural chain unless it says otherwise.", "UniProt P26599": "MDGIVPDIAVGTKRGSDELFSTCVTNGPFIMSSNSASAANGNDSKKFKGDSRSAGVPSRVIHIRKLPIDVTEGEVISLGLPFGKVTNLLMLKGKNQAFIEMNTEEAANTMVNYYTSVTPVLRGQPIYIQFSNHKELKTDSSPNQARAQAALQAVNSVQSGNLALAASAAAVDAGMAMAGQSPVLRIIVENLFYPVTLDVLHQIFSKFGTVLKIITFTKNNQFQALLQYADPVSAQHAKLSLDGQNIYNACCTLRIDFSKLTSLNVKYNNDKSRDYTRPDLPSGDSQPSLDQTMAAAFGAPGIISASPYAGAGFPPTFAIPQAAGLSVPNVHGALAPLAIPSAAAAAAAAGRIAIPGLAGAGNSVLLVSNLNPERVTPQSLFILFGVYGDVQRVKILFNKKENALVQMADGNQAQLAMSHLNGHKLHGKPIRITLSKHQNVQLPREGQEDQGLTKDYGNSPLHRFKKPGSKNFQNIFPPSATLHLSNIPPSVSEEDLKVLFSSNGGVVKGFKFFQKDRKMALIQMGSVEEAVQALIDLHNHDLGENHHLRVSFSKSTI"}, "source": "paper PMC6430814", "molecular_target": "PTBP1 (Homo sapiens) (UniProt P26599)", "assay": "EMSA", "conditions": "0-5 ug PTBP1, 20 pmol RNA, EMSA: 20 mM sodium phosphate pH 7.7, 500 mM NaCl, 20 mM imidazole, 1 mM DTT, 0.1x protease inhibitor, 10 U RNase inhibitor, 15 uL, 28 C, 30 min, 5% TBE-PAGE, recombinant protein, protein details: His tag (pET28a, HisTrap purified), label: 5' 32P, letters put together from the description", "note": "Construct, isoform or probe ends are uncertain for at least one entry. The comparison behind a weaker result is the experiment's own reference, which may not be listed here. At least one verdict was read from the data and is not stated in words by the source."}
{"sequence": "GGGCUUCCCAUUUAUCUAUCUCUAUUUA [UBE2E3 C allele RNA]", "values": [{"measurement": "binding result", "setting": "preferred allele (eCLIP C:21 G:2)", "value": "binds"}]}
{"sequence": "GGGAGUUAAGGACAUAGAAUUGGUCAUG [NACA A allele RNA (oligo T7FwT)]", "values": [{"measurement": "binding result", "setting": "weaker than U allele", "value": "binds more weakly"}]}
{"sequence": "GGGCUUCCCAUUUAUGUAUCUCUAUUUA [UBE2E3 G allele RNA]", "values": [{"measurement": "binding result", "setting": "weaker than C allele", "value": "binds more weakly"}]}
{"sequence": "GGGGUAUGGCAUUGUGUCUUCUUUCCAU [CDC7 G allele RNA]", "values": [{"measurement": "binding result", "setting": "weaker than A allele", "value": "binds more weakly"}]}
{"sequence": "GGGGUAUGGCAUUGUAUCUUCUUUCCAU [CDC7 A allele RNA]", "values": [{"measurement": "binding result", "setting": "preferred allele (eCLIP G:0 A:22)", "value": "binds"}]}
{"sequence": "GGGAGUUAAGGACAUUGAAUUGGUCAUG [NACA U allele RNA (oligo T7FwA)]", "values": [{"measurement": "binding result", "setting": "preferred allele (eCLIP U:21 A:0)", "value": "binds"}]}
